This is one part of the list.
These targets were tested with C#Cc1cccc(Nc2ncnc3cc(OCCOC)c(OCCOC)cc23)c1 [erlotinib] (assay: log2 fold change, soluble protein after heating vs DMSO (PISA); higher = thermal stabilisation; K562 cells, 10 uM, 30 min; active = over 0.2 and 3.5 SD of the protein, either way, in both replicates (recomputed)).
Summary of the method: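 Quantification of soluble protein used TMTpro 16plex LC-MS/MS, with channel sums equalised. Samples were the supernatant after 21,000xg for 90 min of pooled aliquots from K562 cells (2×10^6 cells/mL) treated with 10 μM compound for 30 min, heated for 3 min over 48°C-58°C, and extracted in PBS with 0.5% NP-40 at 4°C. Values, from duplicates, describe thermal stability against control samples on a log2 fold-change scale.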

The chains behind the UniProt entries cited, without tags or fusion partners. Where a name states a change or a piece, a line headed by the entry shows the natural chain unless it says otherwise.
UniProt Q86SF2: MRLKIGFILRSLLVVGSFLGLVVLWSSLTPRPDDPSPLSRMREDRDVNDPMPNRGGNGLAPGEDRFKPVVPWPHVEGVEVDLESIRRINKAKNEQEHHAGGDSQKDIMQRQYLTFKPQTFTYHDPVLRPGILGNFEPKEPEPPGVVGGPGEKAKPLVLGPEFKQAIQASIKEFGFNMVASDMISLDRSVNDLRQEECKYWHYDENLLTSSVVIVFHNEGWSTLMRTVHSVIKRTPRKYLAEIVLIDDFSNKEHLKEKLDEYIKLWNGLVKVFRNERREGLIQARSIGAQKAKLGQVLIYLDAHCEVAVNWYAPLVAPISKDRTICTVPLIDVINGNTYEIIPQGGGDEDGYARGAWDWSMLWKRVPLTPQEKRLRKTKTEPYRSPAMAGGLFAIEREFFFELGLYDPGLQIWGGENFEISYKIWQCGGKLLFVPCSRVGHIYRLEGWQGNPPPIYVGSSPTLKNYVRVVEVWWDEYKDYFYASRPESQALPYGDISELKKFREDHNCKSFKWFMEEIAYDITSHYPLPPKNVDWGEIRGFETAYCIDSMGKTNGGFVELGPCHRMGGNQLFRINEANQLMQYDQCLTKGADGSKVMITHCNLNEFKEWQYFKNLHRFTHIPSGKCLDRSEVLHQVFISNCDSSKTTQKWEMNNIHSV
UniProt Q8WXD5: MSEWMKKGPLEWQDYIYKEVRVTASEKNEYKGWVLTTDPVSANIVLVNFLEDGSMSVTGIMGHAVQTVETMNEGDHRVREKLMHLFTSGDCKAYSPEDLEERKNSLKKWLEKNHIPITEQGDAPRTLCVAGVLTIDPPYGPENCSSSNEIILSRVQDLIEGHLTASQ
UniProt P30047: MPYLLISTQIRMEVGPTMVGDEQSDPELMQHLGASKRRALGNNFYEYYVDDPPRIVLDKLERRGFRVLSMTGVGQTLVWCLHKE
UniProt Q9NZC3: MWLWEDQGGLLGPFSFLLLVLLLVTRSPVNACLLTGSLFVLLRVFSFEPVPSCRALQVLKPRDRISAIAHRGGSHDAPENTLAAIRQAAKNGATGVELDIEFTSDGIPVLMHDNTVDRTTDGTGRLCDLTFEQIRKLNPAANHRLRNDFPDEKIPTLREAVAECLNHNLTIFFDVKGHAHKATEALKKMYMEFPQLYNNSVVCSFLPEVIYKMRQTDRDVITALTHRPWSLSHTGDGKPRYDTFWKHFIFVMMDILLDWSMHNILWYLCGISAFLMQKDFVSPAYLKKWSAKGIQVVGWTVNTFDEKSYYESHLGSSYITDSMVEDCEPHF
UniProt O75223: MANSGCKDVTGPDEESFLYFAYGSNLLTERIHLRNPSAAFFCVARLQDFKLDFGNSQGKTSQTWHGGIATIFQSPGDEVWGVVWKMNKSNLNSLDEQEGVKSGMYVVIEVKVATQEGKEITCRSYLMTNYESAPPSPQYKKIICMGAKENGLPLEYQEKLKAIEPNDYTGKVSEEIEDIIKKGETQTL
UniProt P23434: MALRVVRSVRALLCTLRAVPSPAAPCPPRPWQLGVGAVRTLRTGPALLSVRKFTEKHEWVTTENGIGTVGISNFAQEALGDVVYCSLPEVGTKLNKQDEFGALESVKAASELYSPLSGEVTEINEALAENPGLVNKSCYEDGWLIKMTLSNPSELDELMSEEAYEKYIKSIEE
UniProt Q9NY12: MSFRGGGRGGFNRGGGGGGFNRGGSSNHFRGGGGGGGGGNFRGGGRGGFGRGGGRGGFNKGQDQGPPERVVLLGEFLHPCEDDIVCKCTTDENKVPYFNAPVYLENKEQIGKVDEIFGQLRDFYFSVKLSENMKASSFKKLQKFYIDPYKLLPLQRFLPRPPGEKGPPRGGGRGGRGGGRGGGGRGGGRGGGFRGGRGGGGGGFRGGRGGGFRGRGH
UniProt O75600: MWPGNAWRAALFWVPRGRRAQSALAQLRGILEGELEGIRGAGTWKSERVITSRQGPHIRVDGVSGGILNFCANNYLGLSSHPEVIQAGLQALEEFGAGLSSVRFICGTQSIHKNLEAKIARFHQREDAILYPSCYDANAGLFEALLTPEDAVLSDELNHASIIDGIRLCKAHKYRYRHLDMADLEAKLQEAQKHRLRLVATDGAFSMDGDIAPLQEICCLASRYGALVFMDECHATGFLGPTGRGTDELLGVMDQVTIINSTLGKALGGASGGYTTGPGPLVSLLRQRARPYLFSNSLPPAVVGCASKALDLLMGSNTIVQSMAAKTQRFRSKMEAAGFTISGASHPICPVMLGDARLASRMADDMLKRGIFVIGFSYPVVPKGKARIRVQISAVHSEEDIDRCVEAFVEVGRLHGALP
UniProt P36268: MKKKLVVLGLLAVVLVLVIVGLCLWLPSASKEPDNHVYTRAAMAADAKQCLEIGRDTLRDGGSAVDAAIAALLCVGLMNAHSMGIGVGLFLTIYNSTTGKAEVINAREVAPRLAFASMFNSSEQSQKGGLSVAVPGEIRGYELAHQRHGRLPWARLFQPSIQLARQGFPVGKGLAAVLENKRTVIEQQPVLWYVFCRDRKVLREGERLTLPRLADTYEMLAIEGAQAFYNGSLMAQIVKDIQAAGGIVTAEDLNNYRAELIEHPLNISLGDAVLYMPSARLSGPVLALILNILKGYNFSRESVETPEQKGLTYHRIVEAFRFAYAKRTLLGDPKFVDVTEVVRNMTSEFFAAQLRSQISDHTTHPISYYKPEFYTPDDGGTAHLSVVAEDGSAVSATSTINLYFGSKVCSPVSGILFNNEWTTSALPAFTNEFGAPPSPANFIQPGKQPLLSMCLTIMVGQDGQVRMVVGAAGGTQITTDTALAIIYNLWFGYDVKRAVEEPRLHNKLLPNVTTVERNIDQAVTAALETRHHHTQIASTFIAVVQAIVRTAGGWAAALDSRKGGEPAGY
UniProt Q9BYC5: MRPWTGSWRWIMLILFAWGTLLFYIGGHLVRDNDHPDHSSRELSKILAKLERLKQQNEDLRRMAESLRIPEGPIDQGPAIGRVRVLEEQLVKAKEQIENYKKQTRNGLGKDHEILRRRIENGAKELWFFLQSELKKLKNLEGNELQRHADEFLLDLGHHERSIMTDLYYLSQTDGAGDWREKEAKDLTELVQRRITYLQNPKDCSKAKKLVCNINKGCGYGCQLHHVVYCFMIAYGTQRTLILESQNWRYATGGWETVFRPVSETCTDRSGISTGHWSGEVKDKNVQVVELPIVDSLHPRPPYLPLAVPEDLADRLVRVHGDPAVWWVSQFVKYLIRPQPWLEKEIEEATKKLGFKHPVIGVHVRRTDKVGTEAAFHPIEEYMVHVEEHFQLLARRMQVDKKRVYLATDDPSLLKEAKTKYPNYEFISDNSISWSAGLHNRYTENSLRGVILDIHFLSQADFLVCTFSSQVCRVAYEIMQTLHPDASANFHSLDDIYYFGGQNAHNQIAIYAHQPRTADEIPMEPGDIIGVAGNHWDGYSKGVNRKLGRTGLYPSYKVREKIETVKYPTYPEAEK
UniProt P50395: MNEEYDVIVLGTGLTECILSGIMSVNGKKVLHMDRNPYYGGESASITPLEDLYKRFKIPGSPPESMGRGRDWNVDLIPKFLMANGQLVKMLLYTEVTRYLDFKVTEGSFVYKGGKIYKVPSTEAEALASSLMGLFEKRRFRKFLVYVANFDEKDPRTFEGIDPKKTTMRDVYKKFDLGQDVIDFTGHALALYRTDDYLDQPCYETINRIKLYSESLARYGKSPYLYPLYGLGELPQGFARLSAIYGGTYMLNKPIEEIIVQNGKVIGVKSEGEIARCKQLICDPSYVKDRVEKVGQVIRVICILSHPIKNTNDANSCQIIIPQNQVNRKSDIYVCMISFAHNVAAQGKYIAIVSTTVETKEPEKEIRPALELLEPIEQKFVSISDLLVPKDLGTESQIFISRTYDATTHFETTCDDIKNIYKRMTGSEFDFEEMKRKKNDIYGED
UniProt Q9UJY5: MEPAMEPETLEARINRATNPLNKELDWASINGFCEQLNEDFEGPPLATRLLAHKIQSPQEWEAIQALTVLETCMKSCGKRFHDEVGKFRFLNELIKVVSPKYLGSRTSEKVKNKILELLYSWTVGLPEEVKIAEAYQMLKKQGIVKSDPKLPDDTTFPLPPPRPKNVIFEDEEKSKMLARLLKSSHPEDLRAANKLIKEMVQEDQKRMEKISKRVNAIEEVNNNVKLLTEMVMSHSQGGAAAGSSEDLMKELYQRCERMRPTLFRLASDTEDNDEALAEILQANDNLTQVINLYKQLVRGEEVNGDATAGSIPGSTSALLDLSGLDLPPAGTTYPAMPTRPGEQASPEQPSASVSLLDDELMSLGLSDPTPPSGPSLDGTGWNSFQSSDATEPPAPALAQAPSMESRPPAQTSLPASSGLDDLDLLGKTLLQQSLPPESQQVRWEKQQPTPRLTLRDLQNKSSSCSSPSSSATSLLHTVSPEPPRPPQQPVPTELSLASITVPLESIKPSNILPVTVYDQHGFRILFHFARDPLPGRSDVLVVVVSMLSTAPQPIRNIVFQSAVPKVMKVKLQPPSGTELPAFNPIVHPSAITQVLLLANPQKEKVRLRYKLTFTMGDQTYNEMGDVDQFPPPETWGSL
UniProt Q96CU9: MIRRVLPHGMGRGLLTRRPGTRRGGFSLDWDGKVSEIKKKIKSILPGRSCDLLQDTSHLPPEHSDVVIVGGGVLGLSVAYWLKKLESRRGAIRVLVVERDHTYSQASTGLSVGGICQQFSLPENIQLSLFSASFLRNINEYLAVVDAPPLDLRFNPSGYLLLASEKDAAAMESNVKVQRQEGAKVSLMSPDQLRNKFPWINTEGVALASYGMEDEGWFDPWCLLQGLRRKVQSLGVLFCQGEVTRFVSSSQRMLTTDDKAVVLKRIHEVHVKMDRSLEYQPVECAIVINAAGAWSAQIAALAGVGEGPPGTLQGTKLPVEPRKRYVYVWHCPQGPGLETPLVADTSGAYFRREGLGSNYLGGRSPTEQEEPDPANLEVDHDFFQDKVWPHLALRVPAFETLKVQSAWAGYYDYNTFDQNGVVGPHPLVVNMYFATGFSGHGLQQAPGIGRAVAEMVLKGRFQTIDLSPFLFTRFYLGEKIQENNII
UniProt Q96I24: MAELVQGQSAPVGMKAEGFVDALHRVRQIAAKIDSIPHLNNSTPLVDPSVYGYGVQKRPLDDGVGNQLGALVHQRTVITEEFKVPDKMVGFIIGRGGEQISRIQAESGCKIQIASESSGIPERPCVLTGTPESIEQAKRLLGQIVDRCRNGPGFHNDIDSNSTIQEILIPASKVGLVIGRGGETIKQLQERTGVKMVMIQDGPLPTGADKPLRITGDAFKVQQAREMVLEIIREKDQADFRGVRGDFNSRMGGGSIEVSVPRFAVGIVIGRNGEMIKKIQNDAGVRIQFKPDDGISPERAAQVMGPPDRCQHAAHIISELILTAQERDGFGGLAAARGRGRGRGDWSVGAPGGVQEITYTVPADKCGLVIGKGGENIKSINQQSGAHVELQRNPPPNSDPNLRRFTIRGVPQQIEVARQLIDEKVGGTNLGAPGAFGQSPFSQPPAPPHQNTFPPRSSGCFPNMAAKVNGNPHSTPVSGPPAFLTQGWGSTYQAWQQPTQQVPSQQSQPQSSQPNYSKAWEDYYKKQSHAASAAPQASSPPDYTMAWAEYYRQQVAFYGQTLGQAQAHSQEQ
UniProt Q9UJ14: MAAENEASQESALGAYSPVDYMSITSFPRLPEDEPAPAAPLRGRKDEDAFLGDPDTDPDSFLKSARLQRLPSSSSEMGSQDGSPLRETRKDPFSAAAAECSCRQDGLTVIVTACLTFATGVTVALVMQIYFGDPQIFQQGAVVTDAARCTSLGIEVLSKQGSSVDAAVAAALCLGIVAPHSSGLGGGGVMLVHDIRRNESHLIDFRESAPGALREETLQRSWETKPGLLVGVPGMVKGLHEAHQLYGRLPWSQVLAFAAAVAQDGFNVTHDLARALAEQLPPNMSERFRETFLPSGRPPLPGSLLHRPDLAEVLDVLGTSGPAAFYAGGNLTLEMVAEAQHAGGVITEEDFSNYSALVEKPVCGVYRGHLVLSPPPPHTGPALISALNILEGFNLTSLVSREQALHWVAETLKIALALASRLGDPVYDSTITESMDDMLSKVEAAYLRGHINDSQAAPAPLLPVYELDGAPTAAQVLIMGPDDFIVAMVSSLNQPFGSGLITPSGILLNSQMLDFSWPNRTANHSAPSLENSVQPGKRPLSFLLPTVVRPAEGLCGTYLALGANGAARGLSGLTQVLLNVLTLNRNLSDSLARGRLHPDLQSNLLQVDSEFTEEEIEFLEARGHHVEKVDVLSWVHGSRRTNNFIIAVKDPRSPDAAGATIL
UniProt Q8TB36: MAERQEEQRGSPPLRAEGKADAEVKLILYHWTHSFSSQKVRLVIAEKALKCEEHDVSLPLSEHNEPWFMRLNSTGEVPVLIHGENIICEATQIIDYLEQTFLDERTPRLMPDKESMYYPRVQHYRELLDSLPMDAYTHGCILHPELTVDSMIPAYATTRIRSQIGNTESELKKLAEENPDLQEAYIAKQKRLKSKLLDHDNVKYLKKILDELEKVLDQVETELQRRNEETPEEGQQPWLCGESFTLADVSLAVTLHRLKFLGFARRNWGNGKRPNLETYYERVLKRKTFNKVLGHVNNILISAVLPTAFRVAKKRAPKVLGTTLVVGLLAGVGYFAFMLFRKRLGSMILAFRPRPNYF

log2 fold change, inactive:
GALNT7 (UniProt Q86SF2) 0.011, GEMIN6 (UniProt Q8WXD5) -0.002, GBF1 (UniProt Q92538) -0.012, GCHFR (UniProt P30047) 0.075, GARS1 (UniProt P41250) 0.003, GDE1 (UniProt Q9NZC3) 0.014, GALNT6 (UniProt Q8NCL4) 0.25, GGCT (UniProt O75223) 0.037, FSCN1 (UniProt Q16658) -0.014, GCSH (UniProt P23434) -0.072, G6PD isoform 2 (UniProt P11413) -0.029, FYCO1 isoform 4 (UniProt Q9BQS8) 0.05, FOXJ3 (UniProt Q9UPW0) 0.114, GAR1 (UniProt Q9NY12) -0.093, FUCA1 (UniProt P04066) 0.01, GATD1 (UniProt Q8NB37) 0.028, GAMT (UniProt Q14353) -0.092, GCAT isoform 2 (UniProt O75600) -0.032, FRYL (UniProt O94915) -0.068, GGT2 isoform 3 (UniProt P36268) -0.109, FUT8 (UniProt Q9BYC5) -0.036, GDI2 (UniProt P50395) -0.069, FXR2 (UniProt P51116) -0.074, GGA1 isoform 6 (UniProt Q9UJY5) -0.009, GDPD1 (UniProt Q8N9F7) 0.077, FOXRED1 (UniProt Q96CU9) -0.037, FUBP3 (UniProt Q96I24) -0.059, GGT7 (UniProt Q9UJ14) 0.012, GHITM (UniProt Q9H3K2) -0.015, GFER (UniProt P55789) 0.113, GADD45GIP1 (UniProt Q8TAE8) -0.065, GDAP1 (UniProt Q8TB36) 0.069
